No constants are given. Whether binding was seen depends on the method and setting. For part of these data: Binding seen in cells or lysates may run through a third protein. Some binding calls cover weakened binding; strength is not graded here. For part of these data: Tags and fused reporters may be left off the sequences shown.

By UniProt entry, the sequences of proteins in these tests, tags left out. Residues count along the entry.
UniProt P69566, residues 51-653: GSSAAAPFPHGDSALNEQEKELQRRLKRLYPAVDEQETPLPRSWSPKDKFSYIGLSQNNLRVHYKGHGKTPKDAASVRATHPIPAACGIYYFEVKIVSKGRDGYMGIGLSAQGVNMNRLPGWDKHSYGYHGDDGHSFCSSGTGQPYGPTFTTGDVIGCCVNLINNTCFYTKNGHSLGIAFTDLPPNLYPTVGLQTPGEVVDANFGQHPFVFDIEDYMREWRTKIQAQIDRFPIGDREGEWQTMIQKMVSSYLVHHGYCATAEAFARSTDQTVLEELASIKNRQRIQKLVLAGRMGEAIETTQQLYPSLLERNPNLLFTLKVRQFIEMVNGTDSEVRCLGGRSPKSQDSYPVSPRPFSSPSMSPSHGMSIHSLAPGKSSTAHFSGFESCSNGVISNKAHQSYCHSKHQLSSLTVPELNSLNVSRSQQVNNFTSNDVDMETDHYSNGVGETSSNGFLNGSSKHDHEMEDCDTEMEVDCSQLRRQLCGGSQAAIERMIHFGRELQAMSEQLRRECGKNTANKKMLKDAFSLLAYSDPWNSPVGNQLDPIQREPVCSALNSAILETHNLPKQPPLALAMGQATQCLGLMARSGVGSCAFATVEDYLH

Results on 4 molecules are retold here after article PMC2727916.

In assay [1] the target is T1, GASZ (Germ cell protein with Ankyrin repeats, Sterile alpha motif, and leucine Zipper), full-length mouse, yeast two-hybrid fusion (mouse) (UniProt Q8VD46).
T1 sequence: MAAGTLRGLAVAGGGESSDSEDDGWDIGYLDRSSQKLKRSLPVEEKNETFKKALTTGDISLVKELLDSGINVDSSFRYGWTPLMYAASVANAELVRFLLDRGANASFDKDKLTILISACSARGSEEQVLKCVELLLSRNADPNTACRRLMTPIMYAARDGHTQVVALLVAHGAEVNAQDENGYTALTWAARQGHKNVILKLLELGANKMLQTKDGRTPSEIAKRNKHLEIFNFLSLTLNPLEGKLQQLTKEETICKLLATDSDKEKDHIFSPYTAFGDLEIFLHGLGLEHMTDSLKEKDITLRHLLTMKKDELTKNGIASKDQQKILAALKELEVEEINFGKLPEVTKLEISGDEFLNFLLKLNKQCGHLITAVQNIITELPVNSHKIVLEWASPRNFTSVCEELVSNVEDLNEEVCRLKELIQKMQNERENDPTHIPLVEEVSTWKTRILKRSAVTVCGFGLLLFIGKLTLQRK
Description: two-hybrid; full-length mouse GASZ bait mated with defined pGADT7 prey constructs; interaction quantified as fluorescent signal of equal numbers of mated cells on a 96 well oxygen biosensor plate (CLONTECH Matchmaker BioSensor Kit), 30°C, 24 hours.

The target of assay [2] is T1, GASZ (Germ cell protein with Ankyrin repeats, Sterile alpha motif, and leucine Zipper), full-length mouse, yeast two-hybrid fusion (mouse). In words: two-hybrid; library screen (CLONTECH Matchmaker): full-length mouse GASZ in pGBKT7 as bait against a 17-day-old mouse testis cDNA library; yeast mating, growth on SD Leu- Trp- Ade- His- X-alpha-Gal plates, pGADT7-Rec clones sequenced; confirmed by mating bait with prey constructs.

Assay [3] deals with T2, GASZ, endogenous in mouse testis (mouse (endogenous in testis)) (UniProt Q8VD46).
T2 sequence: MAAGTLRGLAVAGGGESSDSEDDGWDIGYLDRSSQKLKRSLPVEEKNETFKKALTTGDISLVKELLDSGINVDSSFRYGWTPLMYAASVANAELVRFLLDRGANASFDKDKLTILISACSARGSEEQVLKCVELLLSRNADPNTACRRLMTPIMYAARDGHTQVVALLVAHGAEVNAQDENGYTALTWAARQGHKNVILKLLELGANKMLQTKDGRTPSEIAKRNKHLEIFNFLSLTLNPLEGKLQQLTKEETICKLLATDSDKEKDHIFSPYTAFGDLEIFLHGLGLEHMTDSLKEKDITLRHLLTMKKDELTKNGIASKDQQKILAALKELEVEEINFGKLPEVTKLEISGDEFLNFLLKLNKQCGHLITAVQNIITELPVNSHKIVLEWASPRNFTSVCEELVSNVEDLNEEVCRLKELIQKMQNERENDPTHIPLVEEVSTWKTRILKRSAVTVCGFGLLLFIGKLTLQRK
Description: co-IP; 1 mg testicular lysate of 21-day-old WT mice, 0.5% NP-40 lysis buffer, pre-cleared, overnight at 4°C with anti-GASZ, anti-MIWI or no primary antibody, protein G beads in 5% BSA; western blot. Background: Immunoblotting shows a protein as a band on a membrane.

For “RANBP9 construct lacking its proline-rich amino terminus (aa 1-50), yeast two-hybrid prey (from UniProt P69566 51-653) (domain or fragment)”, the binding entry in assay [1] and in assay [2] was “binds” throughout.

B1: tudor-domain containing 1 (TDRD1), endogenous in mouse testis (protein, UniProt Q99MV1 1-1172)
chain: MMPRNNLEASTCKMAEPFNFEKKESKPPPQDPLRSPVAQHNHPTFRLKSPENGNTKNNFLLCEQNKQYLASQEDSSVVSSNPAVVNGEVGGSKGDRKPPPTGNPVSPLSLGNSSPPNQVKTKPSSNVTPEKSKKSHKLFENALSVNNPALFNSLGPPLRSTTCHRCGLFGSLRCSQCKQTYYCSTACQRRDWSSHSTICRPVQQSLNKLEDNKSPFETKAIEVKSEVDCPPGVTKEITAGAERVMFSDLRSLQLKKTMEIKGTVTEFKHPSNFYIQLYSSEVLENMNQLSTSLKETYANVVPEDGYLPVKGEVCVAKYTVDQTWNRAIVQAVDVLQRKAHVLYIDYGNEEMIPIDSVHPLSRGLDLFPPSAIKCCVSGVIPTAGEWSEGCVAAVKALLFEQFCSVKVMDILEEEVLTCAVDLVLQSSGKQLDHVLVEMGYGVKPGEQSSTEQSVDHSALEDVGRVTVESKIVTDRNALIPKVLTLNVGDEFCGVVAHIQTPEDFFCQQLQSGHKLAELQESLSEYCGHVIPRSDFYPTIGDVCCAQFSEDDQWYRASVLAYASEESVLVGYVDYGNFEILSLKRLCPIIPKLLDLPMQALNCVLAGVKPSLGIWTPEAVCVMKEMVQNRMVTVRVVGMLGTRALVELIDKSVAPHVSASKALIDSGFAIKEKDVADKGSSMHTASVPLAIEGPAEALEWTWVEFTVDETVDVVVCMMYSPGEFYCHFLKDDALEKLDDLNQSLADYCAQKPPNGFKAEIGRPCCAFFSGDGNWYRALVKEILPSGNVKVHFVDYGNVEEVTTDQLQAILPQFLLLPFQGMQCWLVDIQPPNKHWTKEATARFQACVVGLKLQARVVEITANGVGVELTDLSTPYPKIISDVLIREQLVLRCGSPQDSLMSRPANQHKQIDSHRVQASPSAEQWKTMELPVNKTIAANVLEIISPALFYAIPSEMSENQEKLCVLAAELLEHCNAQKGQPAYRPRTGDACCAKYTNDDFWYRAIVLETSESDVKVLYADYGNIETLPLSRVQPIPASHLELPFQIIRCSLEGPMELNGSCSQLVMELLRNAMLNQSVVLSVKAISKNVHAVSVEKCSENGMINIAENLVMCGLAENLTSKRKSASTKEIPHSRDCCCTELQKQIEKHEQILLFLLNNPTNQSKFTEMKKLLRS
With B1, in assay [3], the binding result is on record as “binds”.

B2: GASZ (Germ cell protein with Ankyrin repeats, Sterile alpha motif, and leucine Zipper), full-length mouse, yeast two-hybrid fusion (protein, UniProt Q8VD46 1-475)
chain: MAAGTLRGLAVAGGGESSDSEDDGWDIGYLDRSSQKLKRSLPVEEKNETFKKALTTGDISLVKELLDSGINVDSSFRYGWTPLMYAASVANAELVRFLLDRGANASFDKDKLTILISACSARGSEEQVLKCVELLLSRNADPNTACRRLMTPIMYAARDGHTQVVALLVAHGAEVNAQDENGYTALTWAARQGHKNVILKLLELGANKMLQTKDGRTPSEIAKRNKHLEIFNFLSLTLNPLEGKLQQLTKEETICKLLATDSDKEKDHIFSPYTAFGDLEIFLHGLGLEHMTDSLKEKDITLRHLLTMKKDELTKNGIASKDQQKILAALKELEVEEINFGKLPEVTKLEISGDEFLNFLLKLNKQCGHLITAVQNIITELPVNSHKIVLEWASPRNFTSVCEELVSNVEDLNEEVCRLKELIQKMQNERENDPTHIPLVEEVSTWKTRILKRSAVTVCGFGLLLFIGKLTLQRK
B2: the binding entry in assay [1] and in assay [2] was “binds” in each case.

B3: Maelstrom (MAEL), endogenous in mouse testis (protein, UniProt Q8BVN9 1-434)
chain: MPNRRASRNAYYFFVQEKIPELRRRGLPVARVADAIPYCSADWALLREDEKEKYSEMAREWRAAQGKDSGPSEKQKLVSTPLRRPGMLVPKPSISPPDMSNLSIKSDQALLGGIFYFLNIFSHGELPPHCEQRFLPCEIGCVKYSLQEGIMADFHSFIHPGEIPRGFRFHCQAASDSSHKIPISNFEFGHDQATVLQNLYKFIHPNPGNWPPIYCKSDDRARVNWCLKRMERASEIRQDLELLTVEDLVVGIYQQKFLKEPSKTWVRSLLDVAMWDYSSNTRCKWHEENDILFCALAVCKKIAYCISNSLATLFGIQLTGAHVPLQDYEASNSVTPKMVVLDAGRYQKLRVESPGFCHFNSYNQEQRSNTSTGYYPSGVKISGPHSSVRGRGITRLLESISNSSNNIHRFSSCETSLSPYTPQKDGYKPFSSFS
With B3, the binding entry in assay [3] is recorded as “no binding”.
